Experimental data reported in PubChem BioAssay AID2685 (National Center for Advancing Translational Sciences (NCATS), 2010).
Some of the results follow. These are further read-outs of the screen, such as a control signal, another cell line or another target. No call is given for them. The list favours compounds with an active or inconclusive main result. Words in brackets tell the shape of the fitted curve; partial curves, single points and poor fits give uncertain potencies.

Test: qHTS Assay for Lipid Storage Modulators in Drosophila S3 Cells;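 on cell number change: cells counted by Cell Tracker Red CMTPX staining in the red channel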
Details: BODIPY lipid droplet fluorescence, 18-24 h; for cell number change: measured here: cell count max response, cells fed with added oleic acid
Summary of the method: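 Drosophila S3 cells got compounds at several concentrations plus oleic acid (400 uM solution). Laser-scanning cytometry with 488 nm excitation read lipid droplets at 500-530 nm and cells at 575-640 nm. Percent activity was relative to 20 uM Triacsin C.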

[1] = measured here: lipid fluorescence (Fed channel) AC50, cells fed with added oleic acid
[2] = measured here: cell number channel AC50, cells fed with added oleic acid

| SMILES | cell number change | AC50 [1] | AC50 [2] |
| --- | --- | --- | --- |
| Cc1cc(C)cc(NC(=O)N2CCC(NC(=O)c3ccco3)CC2)c1 | 11.7% | 9.2 µM [rising, partial curve, poor fit] | – |
| Cc1cc(Br)ccc1NC(=O)CNC(=O)c1ccc(-n2cncn2)c([N+](=O)[O-])c1 | 3.6% | 29.1 µM [rising, single point] | – |
| COc1ccc(C(=O)NC(=S)Nc2cccc(Cl)c2N2CCOCC2)cc1[N+](=O)[O-] | -16.6% | 0.058 µM [falling, full curve] | – |
| CC(=O)OCC(=O)Nc1ccc(Br)c(C)c1 | -5.39% | – | – |
| CC(C)CN(C(=O)CN(C)C(=O)Cc1ccc(Cl)cc1)c1c(N)n(CC(C)C)c(=O)[nH]c1=O | – | 0.092 µM [rising, full curve, poor fit] | – |
| Cc1cccc(N2C(=O)C(CC(=O)Nc3cccc(F)c3)N(CCc3ccncc3)C2=O)c1 (configuration not stated) | 18.6% | – | 0.103 µM [rising, full curve, poor fit] |
| CCOC(=O)Cc1nnc(Nc2ccc(C)cc2C)c2ccccc12 | -3.29% | 0.651 µM [rising, partial curve, poor fit] | – |
| O=C(NNS(=O)(=O)c1ccc2ccccc2c1)c1cccnc1 | -7.95% | 5.8 µM [rising, single point] | – |
| CCc1cc[n+](-c2nc3ccccc3nc2[N-]S(=O)(=O)c2ccc(Br)s2)cc1 | -35.1% | 13 µM [falling, partial curve] | 16.4 µM [falling, partial curve] |
| COc1ccccc1COCC(O)CNCC1(N2CCCCC2)CCCCC1 (configuration not stated) | -52.2% | 29.1 µM [falling, single point] | 4.61 µM [falling, full curve] |
| O=C(NNC(=O)c1ccccn1)c1cccc([N+](=O)[O-])c1 | 26% | – | 0.411 µM [rising, full curve, poor fit] |
| CCOc1ccccc1N1Cc2ccccc2C1 | 37.6% | – | 13 µM [rising, single point] |
| Cc1cccc(C)c1NC(=O)C[N+](C)(C)CC(O)COc1cccc2ccccc12 (configuration not stated) | -9.84% | 5.8 µM [falling, single point] | 7.31 µM [falling, single point] |
| Cc1ccc(NS(=O)(=O)c2ccc(OCC(=O)NCc3cccnc3)cc2)cc1 | 15.5% | 3.26 µM [rising, full curve, poor fit] | – |
| CCC1C(=O)c2ccccc2N(C)C1=O (configuration not stated) | 15% | 20.6 µM [rising, single point] | 3.66 µM [falling, single point] |
| Cc1ccc(-c2cnc3n2CCCCC3)cc1 | -11% | 0.231 µM [rising, full curve] | 0.651 µM [rising, full curve] |
| CCOc1ccc(NC(=O)CCn2c(=O)[nH]c3ccsc3c2=O)cc1 | -4.42% | 0.651 µM [falling, partial curve, poor fit] | 6.51 µM [falling, single point] |
| COc1cccc(N2CC(=O)N(NC(=O)c3sc4nc(C)cc(C)c4c3N)CC2=O)c1 | 25.1% | 2.06 µM [rising, full curve, poor fit] | – |
| OCCN(CCCn1c(C(F)(F)F)nc2ccccc21)c1nc(CN2CCCCC2)cs1 | 24% | 10.3 µM [falling, single point] | – |
| CC1CCN(S(=O)(=O)c2ccc(NC(=O)C3CC3)cc2)CC1 | 5.71% | – | – |

| SMILES | cell number change | AC50 [1] | AC50 [2] |
| --- | --- | --- | --- |
| COc1ccc(/C(O)=C2/C(=O)C(=O)N(CCN(C)C)C2c2cccnc2)cc1OC (configuration not stated) | 57.3% | 0.731 µM [rising, single point] | 29.1 µM [rising, single point] |
| Cc1ccc2c(c1)N(CCC(=O)NCc1ccc3c(c1)OCO3)C(=O)CO2 | 6.03% | 2.06 µM [falling, partial curve] | – |
| O=C(Cn1c(=O)c2sccc2n(Cc2cccc([N+](=O)[O-])c2)c1=O)NCCc1ccccc1 | 13.9% | 10.3 µM [rising, partial curve] | – |
| O=C(c1c[nH]c(C(=O)C(Cl)(Cl)Cl)c1)c1ccc(F)cc1Cl | -12% | 1.16 µM [falling, full curve, poor fit] | 0.517 µM [falling, single point] |
| Cc1cc2nccc(-c3ccc(Cl)c([N+](=O)[O-])c3)n2n1 | 26.2% | – | – |
| Cc1csc(SCC(=O)N2CCN(S(=O)(=O)c3ccccc3)CC2)n1 | 2.23% | – | – |
| COc1cc(CN(C2CCCCC2C)S(=O)(=O)c2ccc(S(=O)(=O)NC3CC3)cc2)cc(OC)c1OC (configuration not stated) | 3.34% | 18.4 µM [falling, single point] | – |
| CC1(C)NC(=O)N(CC(O)COc2cccc(F)c2)C1=O (configuration not stated) | -34.7% | 0.82 µM [falling, full curve] | 23.1 µM [falling, single point] |
| CCOC(=O)Cn1c(=O)oc2cc(S(=O)(=O)Nc3cc(Cl)ccc3OC)ccc21 | 8.75% | 4.61 µM [rising, partial curve, poor fit] | – |
| CSc1nc2sc3c(c2c(=O)[nH]1)CCc1ccccc1-3 | -41.4% | 14.6 µM [falling, partial curve] | 13 µM [falling, partial curve] |
| CC1=CC2=NC(=O)CC(C)(C(=O)N(CC(=O)NC3CCCC3)Cc3ccccc3)N2C=C1 (configuration not stated) | -21% | 6.51 µM [falling, single point] | – |
| Nc1nc(NCCOCCO)nc(Nc2cccc(F)c2)c1[N+](=O)[O-] | 26.8% | – | – |
| Cc1cc(C)cc(NC(=O)Cn2cc(C=O)c3ccccc32)c1 | -10.6% | 0.184 µM [falling, full curve, poor fit] | – |
| CC12CCC(C(=O)Nc3c(Cl)cccc3Cl)(C(Br)C1=O)C2(C)C (configuration not stated) | 3.1% | 0.731 µM [falling, full curve, poor fit] | – |
| Cc1cc(C(=O)Nc2cc(S(C)(=O)=O)ccc2Cl)no1 | 6% | – | – |
| CCN(CC)C(=O)c1sc(N)c(C#N)c1C | 1.17% | 20.6 µM [rising, single point] | – |
| COc1ccc(C)cc1NC(=O)c1cc(S(=O)(=O)N2CCCC2)cn1C | 14.1% | 0.731 µM [rising, single point] | – |
| O=C(c1cccc(S(=O)(=O)N2CCCC2)c1)N(Cc1ccco1)C1CCS(=O)(=O)C1 (configuration not stated) | 13.1% | – | – |
| Cn1c(=O)c2c(nc(SCCCO)n2Cc2ccccc2Cl)n(C)c1=O | – | 6.51 µM [rising, single point] | – |
| Cc1ccc2nc(NCC(N)=O)nc(-c3ccccc3)c2c1 | -21.2% | 29.1 µM [falling, single point] | – |

| SMILES | cell number change | AC50 [1] | AC50 [2] |
| --- | --- | --- | --- |
| CC(C)(C)SCCNC(=O)c1cccc([N+](=O)[O-])c1 | -36.3% | – | 4.11 µM [falling, full curve] |
| Oc1c(N=Nc2ccccc2)sc2ccccc12 | -32.7% | 23.1 µM [falling, partial curve] | 16.4 µM [falling, partial curve] |
| Cc1nc2n(COCCO)cnn2c(=O)c1Br | 28.5% | 0.517 µM [rising, full curve, poor fit] | 0.0326 µM [rising, full curve, poor fit] |
| Cc1nnc(Oc2ccc([N+](=O)[O-])cc2)c2ccccc12 | -4.23% | – | – |
| CCCc1cc(C(=O)N2CCCC(CO)(CCCc3ccccc3)C2)n(C)n1 (configuration not stated) | -9.54% | 3.66 µM [falling, full curve] | – |
| COc1ccc(Nc2nc(N)nc(CSc3n[nH]c(-c4ccccc4)n3)n2)cc1 | -10.7% | – | 0.092 µM [falling, full curve, poor fit] |
| CCCN(CCC)CCCNC(=O)CC(C(=O)N1CCc2ccccc21)n1ccnc1 (configuration not stated) | – | 5.17 µM [falling, partial curve, poor fit] | 7.31 µM [falling, single point] |
| O=C(O)CCSCC(=O)c1ccc2c(c1)OCCO2 | 5.21% | – | – |
| COc1ccc(-c2noc(CSc3nc(-c4ccccc4)cc(=O)[nH]3)n2)cc1OC | -63.1% | 13 µM [falling, partial curve, poor fit] | 16.4 µM [falling, partial curve] |
| CN(C)S(=O)(=O)c1ccc(C(=O)OCC2CC2(Cl)Cl)cc1 (configuration not stated) | -8.06% | – | – |
| CCOc1ccc(S(=O)(=O)Nc2ccc(C(=O)N3CCCC3)cc2)cc1 | 19% | 11.2 µM [rising, partial curve, poor fit] | – |
| CC(C)NC(=O)NC(=O)CSc1nnc(-c2ccccc2F)n1N | 13.1% | – | 0.731 µM [rising, partial curve, poor fit] |
| CC(=O)Nc1ccc(S(=O)(=O)NC2(C(F)(F)F)C(=O)Nc3c2c(=O)[nH]c(=O)n3C)cc1 (configuration not stated) | -44.2% | 6.51 µM [falling, single point] | 0.517 µM [falling, full curve] |
| Cc1nc2nc(NCc3cccs3)nn2c(C)c1Cl | 63% | – | 20.6 µM [rising, single point] |
| CCCC[C@H]1COCCS(=O)(=O)N1Cc1cccc(F)c1 | 10.2% | – | – |
| CCOc1ccc(NC(=O)[C@@H]2CCCN2C(=O)c2cccs2)cc1S(=O)(=O)N1CCOCC1 | -13.1% | – | – |
| Cc1ccc(OCCOCCN(C)C)c(Cl)c1 | -5.89% | 29.1 µM [falling, single point] | – |
| Cc1nc(NC(=O)CSc2cc(C)c3ccccc3n2)c(Cl)cc1Cl | 26.6% | 23.1 µM [rising, single point] | 0.0517 µM [rising, full curve, poor fit] |

Structures shown so far that have a CF3 group:

| SMILES | cell number change | AC50 [1] | AC50 [2] |
| --- | --- | --- | --- |
| OCCN(CCCn1c(C(F)(F)F)nc2ccccc21)c1nc(CN2CCCCC2)cs1 | 24% | 10.3 µM [falling, single point] | – |
| CC(=O)Nc1ccc(S(=O)(=O)NC2(C(F)(F)F)C(=O)Nc3c2c(=O)[nH]c(=O)n3C)cc1 (configuration not stated) | -44.2% | 6.51 µM [falling, single point] | 0.517 µM [falling, full curve] |
